Measured values published in patent US20130287702A1 (CASE WESTERN RESERVE UNIVERSITY, published 2013).
No constants are given. Whether binding was seen depends on the method and setting. Some entries that bind do so weakly or less than the wild type.

T1: proteolytically cleaved PTPµ extracellular fragment in tumors of human LN-229 glioma cells (human) (UniProt P28827)
T1 sequence: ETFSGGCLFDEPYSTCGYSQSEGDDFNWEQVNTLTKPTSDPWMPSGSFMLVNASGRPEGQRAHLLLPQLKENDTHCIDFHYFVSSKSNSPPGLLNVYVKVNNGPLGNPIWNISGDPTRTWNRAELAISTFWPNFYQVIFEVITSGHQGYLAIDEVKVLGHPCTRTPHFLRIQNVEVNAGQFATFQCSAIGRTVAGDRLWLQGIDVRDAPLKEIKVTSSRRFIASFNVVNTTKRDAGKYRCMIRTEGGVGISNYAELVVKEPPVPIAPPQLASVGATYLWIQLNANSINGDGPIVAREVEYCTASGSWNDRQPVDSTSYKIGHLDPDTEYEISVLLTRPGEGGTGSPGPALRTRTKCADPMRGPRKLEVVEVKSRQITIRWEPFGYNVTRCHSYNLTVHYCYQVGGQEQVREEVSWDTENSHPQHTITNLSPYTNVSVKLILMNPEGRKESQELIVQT


Tests used:
[1] = target: T1, proteolytically cleaved PTPµ extracellular fragment in tumors of human LN-229 glioma cells (human); assay: in vivo labeling of LN-229-GFP intracranial tumors, cryo-imaging
[2] = target: T1, proteolytically cleaved PTPµ extracellular fragment in tumors of human LN-229 glioma cells (human); assay: in vivo labeling of LN-229-GFP xenografts, 3-D cryo-imaging (FIG. 8)
[3] = target: T1, proteolytically cleaved PTPµ extracellular fragment in tumors of human LN-229 glioma cells (human); assay: fluorescent probe labeling (1 µM) of fixed LN-229-GFP flank tumor sections

binding [1] | binding [2] | binding [3] | Binder
binds | binds | – | EGDDFNWEQVNTLTKPTSD (Cy5 NHS ester dye conjugated to the N-terminal glycine residue) [SBK2-Cy5 probe]
– | – | binds | EGDDFNWEQVNTLTKPTSD (Texas Red label; site of attachment not stated) [SBK2-Texas Red probe]
